At least one read-out could not be matched to a standard name with certainty.
Test system: MRSA
Test: Antimicrobial susceptibility test (disc diffusion), MRSA
Format: cell-based, methicillin resistant Staphylococcus aureus
Conditions: dash = none; for Intermediate %: share of MRSA strains classed intermediate; for Resistant %: share of MRSA strains classed resistant; for Sensitive %: share of MRSA strains classed sensitive
Method: Several bacterial colonies were transferred from the agar plates to bijoux containing MHB. The suspension is incubated at 35° C. and subsequently diluted down in sterile saline to match the density of a McFarland standard solution. A sterile cotton swab is then dipped in the bacterial inoculum and pressed against the bijou walls to remove any excess solution. MHA plates are then thoroughly streaked with the swab three times, turning the plate 60° each time. The discs are placed onto the inoculated plate within 15 minutes. The positions of the discs should allow enough space (≈24 mm) around each individual disc in order to measure the diffusion diameter at a later stage. The plates were incubated immediately at 35° C. for 16-18 hours for all organisms excluding VRE, and MRSA, which require a 24-hour incubation. The experiment was valid if there was a confluent bacterial growth, not single colonies, and circular inhibition zones were evident. Clear zones produced around the disc were measured with a ruler and interpreted according to the tables provided by the NCCLS. Bacteria were classified as sensitive, intermediate or resistant.

SMILES | Intermediate % | Resistant % | Sensitive %
CO[C@H]1/C=C/O[C@@]2(C)Oc3c(C)c(O)c4c(O)c(c(/C=N/N5CCN(C)CC5)c(O)c4c3C2=O)NC(=O)/C(C)=C\C=C\[C@H](C)[C@H](O)[C@@H](C)[C@@H](O)[C@@H](C)[C@H](OC(C)=O)[C@@H]1C [Rifampicin] | 8% | 11% | 81%
CN(C)[C@@H]1C(O)=C(C(N)=O)C(=O)[C@@]2(O)C(O)=C3C(=O)c4c(O)cccc4[C@@](C)(O)[C@H]3C[C@@H]12 [Tetracycline] |  | 84% | 16%
NCC[C@H](O)C(=O)N[C@@H]1C[C@H](N)[C@@H](O[C@H]2O[C@H](CN)[C@@H](O)[C@H](O)[C@H]2O)[C@H](O)[C@H]1O[C@H]1O[C@H](CO)[C@@H](O)[C@H](N)[C@H]1O [Amikacin] | 11% | 16% | 73%
CCC[C@@H]1C[C@@H](C(=O)N[C@@H]([C@H]2O[C@H](SC)[C@H](O)[C@@H](O)[C@H]2O)[C@H](C)Cl)N(C)C1 [Clindamycin] |  | 41% | 59%
CC[C@H]1OC(=O)[C@H](C)[C@@H](O[C@H]2C[C@@](C)(OC)[C@@H](O)[C@H](C)O2)[C@H](C)[C@@H](O[C@@H]2O[C@H](C)C[C@H](N(C)C)[C@H]2O)[C@](C)(O)C[C@@H](C)C(=O)[C@H](C)[C@@H](O)[C@]1(C)O [Erythromycin] |  | 11% | 89%
CN[C@H](CC(C)C)C(=O)N[C@H]1C(=O)N[C@@H](CC(N)=O)C(=O)N[C@H]2C(=O)N[C@H]3C(=O)N[C@H](C(=O)N[C@H](C(=O)O)c4cc(O)cc(O)c4-c4cc3ccc4O)[C@H](O)c3ccc(c(Cl)c3)Oc3cc2cc(c3O[C@@H]2O[C@H](CO)[C@@H](O)[C@H](O)[C@H]2O[C@H]2C[C@](C)(N)[C@H](O)[C@H](C)O2)Oc2ccc(cc2Cl)[C@H]1O [Vancomycin] |  |  | 100%
Cc1onc(-c2ccccc2)c1C(=O)N[C@@H]1C(=O)N2[C@@H]1SC(C)(C)[C@@H]2C(=O)O [Oxacillin] |  | 100% | 
